Test results from publication PMC5996148.
Some of the results follow.

Columns and labels:
Experiment in all cases: protein microarray (ProtoArray v5.0), streptavidin-Alexa Fluor 647
Details in all cases: 3'-biotin; 20 mM Tris (pH 7.5), 5 mM MgCl2, 100 mM KCl, 0.1% Tween-20, A/T-rich and random oligonucleotide blockers; temperature not stated; high values mean tight binding
[1] = test system: Dual specificity mitogen-activated protein kinase kinase 3 (human)
[2] = test system: Dual specificity phosphatase DUPD1 (human)
[3] = test system: Dynein light chain roadblock-type 1 (human)
[4] = test system: Dynein light chain roadblock-type 2 (human)
E2F4 (human) = test system: E2F4 (human)
[5] = test system: E3 ubiquitin-protein ligase Arkadia (human)
EBF1 (human) = test system: EBF1 (human)
EBP (human) = test system: EBP (human)
ECE1 (human) = test system: ECE1 (human)
ECE2 (human) = test system: ECE2 (human)

GGGAGGCTGAGGCAGG [G4-1 biotinylated (PQS2)]
binding signal [1]: -0.276 z-score
binding signal [2]: -0.269 z-score
binding signal [3]: -0.295 z-score
binding signal [4]: -0.27 z-score
binding signal (E2F4 (human)): -0.348 z-score
binding signal [5]: -0.311 z-score
binding signal (EBF1 (human)): -0.329 z-score
binding signal (EBP (human)): -0.313 z-score
binding signal (ECE1 (human)): -0.34 z-score
binding signal (ECE2 (human)): -0.358 z-score
